We go through 25 compounds from PubChem BioAssay AID314 (DTP/NCI, 2004).

The test system of this assay is DBA/2 mice, P1534 leukemia ip, survival T/C. The assay can be described thus: NCI In Vivo Anticancer Drug Screen. Data for tumor model P1534 Leukemia (intraperitoneal) in DBA/2 mice. Conditions: T/C endpoint: mean survival time, schedule: Q01DX010 (ip), higher T/C = longer survival. As to the method: The antitumor activity of compounds was measured in mice bearing transplantable tumors. Survival or tumor size were measured and the results are expressed as the measurement made in the treated group (T) divided by the measurement made in the vehicle treated control group (C). The tumor model used in this assay is P1534 Leukemia (intraperitoneal) in DBA/2 mice

[1] abbreviates: dose: 10.0 mg/kg/injection, vehicle: saline.
Where [2] appears, read: dose: 20.0 mg/kg/injection, vehicle: saline.
Where [3] appears, read: dose: 100.0 mg/kg/injection, vehicle: saline.
The mark [4] stands for this setting: dose: 40.0 mg/kg/injection, vehicle: saline.
Setting [5] is: dose: 25.0 mg/kg/injection, vehicle: saline.
Where [6] appears, read: dose: 64.0 mg/kg/injection, vehicle: saline.
Where [7] appears, read: dose: 128.0 mg/kg/injection, vehicle: saline.
Where [8] appears, read: dose: 5.0 mg/kg/injection, vehicle: saline.
The mark [9] stands for this setting: dose: 1.0 mg/kg/injection, vehicle: saline.
The mark [10] stands for this setting: dose: 2.0 mg/kg/injection, vehicle: saline.
[11] abbreviates: dose: 2.5 mg/kg/injection, vehicle: saline.
Where [12] appears, read: dose: 4.0 mg/kg/injection, vehicle: saline.
Setting [13] is: dose: 8.0 mg/kg/injection, vehicle: saline.
Setting [14] is: dose: 16.0 mg/kg/injection, vehicle: saline.
[15] abbreviates: dose: 32.0 mg/kg/injection, vehicle: saline.
Where [16] appears, read: dose: 1.25 mg/kg/injection, vehicle: saline.
Setting [17] is: dose: 62.5 mg/kg/injection, vehicle: saline.
The mark [18] stands for this setting: dose: 125.0 mg/kg/injection, vehicle: saline.
The mark [19] stands for this setting: dose: 250.0 mg/kg/injection, vehicle: saline.
Where [20] appears, read: dose: 0.5 mg/kg/injection, vehicle: saline.

Each structure is given as a SMILES string. The list does not hold the whole screen: it is rich in T/C values a quarter to a half above the control, in often repeated tests (any T/C) and in doses without a T/C. Further doses and runs are listed elsewhere. T/C is the treated group as % of the vehicle group. Some doses have a count of surviving animals in place of a T/C: the source holds a T/C of zero for them, seemingly a mark for toxic or unscored doses. Some doses without a T/C left all or most animals alive at the check, yet need not have been tolerated: survival well below the control is almost never listed, so the zero probably covers shortened survival too. Survivors were counted at the toxicity check, usually on the fifth day, unless a day is given; later deaths do not show. Schedule codes are those of the source, taken here to give the interval after Q, in days (D) or hours (H), and the number of doses after X. Some entries hold several experiments; the values are given in rising order. Where survival is the endpoint, the PubChem record calls one and a half times the control and up active, and a quarter to a half above the control has no call in these data; cut-offs in other NCI protocols can differ. Counts like (3×) count equal records among those shown. Some T/C values carry the count of animals alive at the toxicity check (mostly the fifth day); without a count, all were alive then.

Consider `O=c1[nH]c(=O)n(C2CC(O)C(CO)O2)cc1F` (centres undefined), for which the T/C runs as follows: under setting [1], 126 % of control (2×); under setting [2], 134 % of control; (dose: 37.5 mg/kg/injection, vehicle: saline) 139 % of control. The survivor count reads like this: (dose: 75.0 mg/kg/injection, vehicle: saline) 6 of 6; (dose: 150.0 mg/kg/injection, vehicle: saline) 6 of 6.

Regarding `O=C1C=CC2(CCC23C=CC(=O)O3)O1` (centres undefined), the survivor count by setting is: under setting [3], 3 of 6; (dose: 200.0 mg/kg/injection, vehicle: saline) 0 of 6; (dose: 400.0 mg/kg/injection, vehicle: saline) 0 of 6.

Consider `CC[n+]1c(-c2ccccc2)c2cc(N)ccc2c2ccc(N)cc21`, for which the survivor count by setting is: under setting [2], 4 of 6; under setting [4], 0 of 6.

`COS(C)(=O)=O`: the survivor count is 6 of 6 under setting [5] and 6 of 6 under setting [3].

Take `O=C(Nc1ccc(C2=NCCN2)cc1)c1ccc(C(=O)Nc2ccc(C3=NCCN3)cc2)c(Cl)c1`: the survivor count was 2 of 6 and 3 of 6 under setting [6]; 0 of 6 under setting [7].

As for `Cn1cnc([N+](=O)[O-])c1Sc1nc(N)nc2nc[nH]c12`, the survivor count is listed as 6 of 6 under setting [8] and 6 of 6 under setting [1].

For `Nc1nc(=S)c2ncn(C3OC(CO)C(O)C3O)c2[nH]1` (centres undefined), the survivor count is listed as 6 of 6 under setting [9]; 6 of 6 under setting [10]; 6 of 6 under setting [11]; 6 of 6 under setting [12]; 5 of 6 under setting [8]; 6 of 6 under setting [13]. Further, the survivor count under setting [1] is recorded as 6 of 6, the survivor count under setting [14] is 6 of 6, the survivor count under setting [15] is 6 of 6 and the survivor count under setting [6] is 6 of 6.

For `COc1cc2c3c(c4ccc(OC)c(OC)c4c2cc1OC)CN1CCC[C@@H]1C3`, the survivor count by setting is: under setting [16], 6 of 6; under setting [8], 6 of 6; under setting [1], 6 of 6; (dose: 15.0 mg/kg/injection, vehicle: saline) 6 of 6; under setting [2], 3 of 6, 5 of 6, 6 of 6. The T/C under setting [8] is 88 [5 of 6 alive], 100 [5 of 6 alive], 107 % of control.

Take `CCn1cnc2c(=S)nc[nH]c21`: the T/C is 92 and 100 % of control (3×) under setting [13]; 100 (3×) and 103 % of control under setting [14]; 92, 96, 100 [5 of 6 alive], 103 % of control under setting [15]; 100 (3×) and 103 % of control under setting [6].

On to `CCNc1nncs1`, for which the survivor count was 6 of 6 under setting [17] and 5 of 6 under setting [18].

`Nc1nc2n[nH]nc2c(=O)[nH]1`: under “dose: 400.0 mg/kg/injection, vehicle: alkali diluted with saline”, the T/C was 131 and 142 % of control.

Consider `S=P(N1CCOCC1)(N1CC1)N1CC1`, for which the T/C is, setting by setting: under setting [8], 110, 111, 114 % of control; under setting [1], 110 % of control. For the same compound, the survivor count is, setting by setting: under setting [8], 6 of 6; under setting [1], 5 of 6 and 6 of 6; under setting [2], 6 of 6; under setting [4], 6 of 6.

`CCOC(=O)NP(=O)(N1CC1(C)C)N1CC1(C)C` (centres undefined): under setting [19], the survivor count is 6 of 6.

Consider `CC(=O)Nc1ccc2nc3ccc(NC(C)=O)cc3[n+](-c3ccccc3)c2c1`, for which the survivor count by setting is: (dose: 31.3 mg/kg/injection, vehicle: saline) 6 of 6; under setting [17], 6 of 6; under setting [18], 5 of 6; under setting [19], 6 of 6.

Consider `NCCCCCCNC(=O)CCC(=O)NCCCCCCN`, for which the survivor count is, setting by setting: under setting [15], 5 of 6; under setting [7], 4 of 6.

Consider `O=CCC(O)C(O)C(O)CO` (centres undefined), for which, under “dose: 1000.0 mg/kg/injection, vehicle: saline”, the survivor count was 6 of 6.

In the case of `CS(=O)(=O)OCCC(=O)N1CCN(C(=O)CCOS(C)(=O)=O)CC1`, the survivor count is on record as 6 of 6 (dose: 12.5 mg/kg/injection, vehicle: saline); 6 of 6 (dose: 50.0 mg/kg/injection, vehicle: saline); 6 of 6 under setting [3]. Also, the T/C under setting [5] was 138 % of control [5 of 6 alive].

`N=[N+]=CC(=O)OCC(N)C(=O)O` (centres undefined): the T/C under setting [12] was 129 % of control.

On to `CC(CCC(C)OS(C)(=O)=O)OS(C)(=O)=O` (centres undefined), for which the survivor count under setting [14] is listed as 6 of 6.

With `CC(=O)c1cccc(NC2C(N)C(NC(=O)N(C)C)(C(C)O)C(C)(O)C2(O)COC(=O)c2c(C)cccc2O)c1` (centres undefined), the survivor count was 6 of 6 under setting [20], 5 of 6 under setting [9] and 0 of 6 under setting [10].

As for `CC(=O)NC1=C(N2CC2)C(=O)C(NC(C)=O)=C(N2CC2)C1=O`, the survivor count runs as follows: (dose: 0.25 mg/kg/injection, vehicle: saline) 6 of 6; under setting [20], 6 of 6; under setting [9], 6 of 6; under setting [10], 4 of 6.

For `COc1cc([C@@H]2c3cc4c(c(O)c3C[C@H]3COC(=O)[C@@H]32)OCO4)cc(OC)c1OC`, the survivor count reads like this: (dose: 0.31 mg/kg/injection, vehicle: saline) 5 of 6; (dose: 0.63 mg/kg/injection, vehicle: saline) 5 of 6; under setting [16], 6 of 6; under setting [11], 6 of 6; (dose: 313.0 micrograms/kg/injection, vehicle: saline) 5 of 6.

As for `CN(C)Cc1c[nH]c2ccccc12`, the survivor count by setting is: under setting [17], 4 of 6; under setting [18], 0 of 6.

On to `COC1=C(N)C(=O)c2nc(-c3nc(C(=O)O)c(C)c(-c4ccc(OC)c(OC)c4O)c3N)ccc2C1=O`, for which the survivor count reads like this: (dose: 0.2 mg/kg/injection, vehicle: other) 5 of 6; (dose: 0.3 mg/kg/injection, vehicle: other) 5 of 6; (dose: 0.45 mg/kg/injection, vehicle: other) 6 of 6; (dose: 0.66 mg/kg/injection, vehicle: other) 4 of 6.

As to `N=C(N)SCc1c2ccccc2c(CSC(=N)N)c2ccccc12`, the T/C under setting [11] is 130 % of control. The survivor count under setting [2] is listed as 5 of 6.
